## Drug screen on melanoma cell lines: apoptosis marker

From a melanoma drug combination screen (doi:10.1371/journal.pone.0140310); values rounded.

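Human melanoma cell lines in 1,536-well plates were treated with two drugs together for 72 h, then fixed, stained and imaged. The read-out is the fraction of cleaved-PARP-positive nuclei, in % of that fraction in the DMSO control; 200 means twice the control level of this apoptosis marker. Concentrations were fixed for each drug; these are the higher of two levels. The file gives one value for each pair and line, without errors, so small differences may be noise. Basal and induced levels differ widely between cell lines.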 This is part of the screen, not chosen by result. A dash means that no value is listed here.

Drug key:
indole-3-carbinol: OCc1c[nH]c2ccccc12 at 4 µM
tanespimycin: C=CCNC1=C2C[C@@H](C)C[C@H](OC)[C@H](O)[C@@H](C)/C=C(\C)[C@H](OC(N)=O)[C@@H](OC)/C=C\C=C(/C)C(=O)NC(=CC1=O)C2=O at 0.01 µM
NVP-TAE684: COc1cc(N2CCC(N3CCN(C)CC3)CC2)ccc1Nc1ncc(Cl)c(Nc2ccccc2S(=O)(=O)C(C)C)n1 at 0.4 µM
darinaparsin: C[As](C)SC[C@H](NC(=O)CC[C@H](N)C(=O)O)C(=O)NCC(=O)O at 2 µM
BI-78D3: O=c1[nH]nc(Sc2ncc([N+](=O)[O-])s2)n1-c1ccc2c(c1)OCCO2 at 1 µM
bexarotene: C=C(c1ccc(C(=O)O)cc1)c1cc2c(cc1C)C(C)(C)CCC2(C)C at 10 µM
AZD7762: NC(=O)Nc1cc(-c2cccc(F)c2)sc1C(=O)N[C@H]1CCCNC1 at 0.1 µM
BMS-536924: Cc1cc(N2CCOCC2)cc2[nH]c(-c3c(NC[C@@H](O)c4cccc(Cl)c4)cc[nH]c3=O)nc12 at 1 µM
GW0742: Cc1cc(SCc2sc(-c3ccc(C(F)(F)F)c(F)c3)nc2C)ccc1OCC(=O)O at 10 µM
tozasertib: Cc1cc(Nc2cc(N3CCN(C)CC3)nc(Sc3ccc(NC(=O)C4CC4)cc3)n2)n[nH]1 at 0.03 µM

| # | Combination | WM3619 | WM115 | SK-MEL-28 | A2058 | C32 | COLO 792 | COLO 829 | MZ2-MEL | SK-MEL-30 | IPC-298 | RVH-421 | UACC-257 | A101D | RPMI-7951 | SK-MEL-2 | WM3526 |
|---|---|---|---|---|---|---|---|---|---|---|---|---|---|---|---|---|---|
| 1 | darinaparsin + BMS-536924 | 115 | 153 | 34.6 | 102 | 215 | 224 | 43.9 | 213 | 160 | 51.0 | 108 | 53.1 | 340 | 80.5 | 94.2 | 297 |
| 2 | tanespimycin + BI-78D3 | 150 | 1760 | 79.2 | 383 | 898 | 218 | 125 | 200 | 135 | 68.4 | 152 | 75.5 | 180 | 285 | 163 | 236 |
| 3 | BMS-536924 + bexarotene | 89.1 | 46.8 | 104 | 94.2 | 190 | 78.7 | 180 | 354 | 76.4 | 38.9 | 109 | 148 | 113 | 71.7 | 144 | 107 |
| 4 | BMS-536924 + BI-78D3 | 123 | 108 | 342 | 99.9 | 99.4 | 144 | 173 | 195 | 132 | 192 | 81.3 | 68.6 | 67.3 | 82.7 | 116 | 141 |
| 5 | GW0742 + tanespimycin | 115 | 533 | 143 | 132 | 1170 | 75.6 | 112 | 128 | 130 | 82.7 | 93.2 | 44.2 | 100 | 206 | 161 | 178 |
| 6 | darinaparsin + indole-3-carbinol | 116 | 101 | 19.0 | 60.8 | 168 | 118 | 84.1 | 90.3 | 58.1 | 69.2 | 165 | 48.7 | 50.9 | 131 | 19.6 | 139 |
| 7 | GW0742 + bexarotene | 102 | 44.3 | 105 | 81.4 | 77.3 | 123 | 164 | 288 | 73.3 | 131 | 206 | 81.1 | 148 | 50.6 | 85.1 | 65.9 |
| 8 | BMS-536924 + NVP-TAE684 | 647 | 320 | 97.3 | 314 | 133 | 187 | 36.9 | 242 | 91.1 | 30.1 | 45.0 | 28.4 | 200 | 130 | 110 | 251 |
| 9 | GW0742 + BI-78D3 | 73.5 | 103 | 36.8 | 83.3 | 80.4 | 55.4 | 56.9 | 75.0 | 69.8 | 60.5 | 21.3 | 29.4 | 52.5 | 23.7 | 62.5 | 65.7 |
| 10 | tozasertib + BI-78D3 | 140 | 518 | 36.0 | 89.7 | 207 | 61.0 | 203 | 194 | 139 | 105 | 95.7 | 55.4 | 167 | 76.9 | 77.0 | 109 |
| 11 | BI-78D3 + darinaparsin | 319 | 148 | 126 | 192 | 216 | 70.4 | 124 | 107 | 67.5 | 137 | 120 | 15.8 | 35.5 | 42.5 | 204 | 253 |
| 12 | BMS-536924 + tozasertib | 144 | 146 | 149 | 168 | 222 | 215 | 31.3 | - | 47.6 | 114 | 64.7 | 34.2 | 191 | 254 | - | 208 |
| 13 | BI-78D3 + bexarotene | 97.3 | 114 | 49.1 | 61.4 | 198 | 85.8 | 191 | 401 | 78.1 | 114 | 59.9 | 61.9 | 93.0 | 19.5 | 99.3 | 60.1 |
| 14 | tozasertib + darinaparsin | 130 | 111 | 104 | 143 | 170 | 106 | 117 | 253 | 27.1 | 66.2 | 156 | 45.2 | 71.1 | 109 | 118 | 226 |
| 15 | BMS-536924 + AZD7762 | 406 | 560 | 447 | 217 | 567 | 2090 | 141 | 379 | 227 | 124 | 74.6 | 107 | 77.0 | 380 | 177 | 922 |
| 16 | AZD7762 + GW0742 | 712 | 136 | 195 | 208 | 194 | 188 | 37.6 | 131 | 278 | 55.5 | 70.3 | 57.4 | 123 | 283 | 392 | 428 |
| 17 | bexarotene + darinaparsin | 88.7 | 60.6 | 80.0 | 136 | 119 | 62.9 | 167 | 159 | 52.2 | 128 | 82.0 | 145 | 131 | 129 | 109 | 212 |
| 18 | bexarotene + NVP-TAE684 | 109 | 43.3 | 54.9 | 318 | 209 | 64.1 | 153 | 64.8 | 59.2 | 89.0 | 444 | 42.7 | 76.4 | 61.8 | 130 | 56.6 |
| 19 | BI-78D3 + indole-3-carbinol | 126 | 178 | 17.3 | 86.1 | 187 | 99.3 | 150 | - | 372 | 96.6 | 120 | 39.3 | 35.7 | 139 | 133 | 97.6 |
| 20 | GW0742 + darinaparsin | 79.7 | 103 | 131 | 51.8 | 94.0 | 58.3 | 55.7 | 45.7 | 74.1 | 118 | 72.5 | 20.1 | 48.7 | 125 | 56.8 | 66.2 |
| 21 | indole-3-carbinol + tanespimycin | 145 | 1940 | 107 | 195 | 551 | 131 | 150 | 145 | 184 | 396 | 82.2 | 38.2 | 61.9 | 366 | 130 | 183 |
| 22 | NVP-TAE684 + darinaparsin | 130 | 75.6 | 53.1 | 349 | 94.2 | 63.4 | 37.7 | - | 75.5 | 110 | 219 | 42.9 | 141 | 107 | - | 156 |
| 23 | indole-3-carbinol + BMS-536924 | 110 | 56.3 | 142 | 116 | 206 | 222 | 40.6 | 88.5 | 120 | 83.3 | 237 | 131 | 40.6 | 184 | 85.5 | 148 |
| 24 | tozasertib + tanespimycin | 208 | 1010 | 44.0 | 192 | 1910 | 162 | 217 | 386 | 92.1 | 80.3 | 327 | 44.7 | 186 | 394 | 242 | 253 |
| 25 | bexarotene + tanespimycin | 162 | 2530 | 96.0 | 243 | 315 | 339 | 224 | 225 | 143 | 38.8 | 54.7 | 40.2 | 2040 | 419 | 111 | 273 |
| 26 | indole-3-carbinol + AZD7762 | 515 | 141 | 239 | 197 | 305 | 233 | 37.2 | 53.2 | 104 | 76.3 | 77.3 | 98.4 | 76.9 | 64.7 | 103 | 448 |
| 27 | darinaparsin + AZD7762 | 321 | 159 | 94.1 | 406 | 189 | 162 | 285 | 171 | 130 | 173 | 39.7 | 157 | 305 | 248 | 293 | 733 |
| 28 | GW0742 + NVP-TAE684 | 116 | 74.8 | 59.7 | 173 | 108 | 314 | 53.2 | 89.8 | 49.9 | 57.4 | 52.6 | 74.6 | 145 | 70.7 | 109 | 114 |
| 29 | BMS-536924 + tanespimycin | 161 | 1020 | 140 | 138 | 1000 | 487 | 107 | 321 | 132 | 144 | 154 | 53.8 | 398 | 486 | 150 | 255 |
| 30 | AZD7762 + BI-78D3 | 442 | 147 | 149 | 209 | 423 | 152 | 89.6 | 144 | 160 | 131 | 42.6 | 126 | 75.8 | 334 | 225 | 875 |
| 31 | AZD7762 + tozasertib | 623 | 667 | 202 | 357 | 789 | 438 | 68.8 | 595 | 495 | 37.9 | 133 | 81.5 | 149 | 153 | 690 | 1060 |
| 32 | AZD7762 + tanespimycin | 229 | 2590 | 439 | 2990 | 1680 | 523 | 339 | 166 | 281 | 94.4 | 50.0 | 29.4 | 178 | 463 | 357 | 1710 |
| 33 | NVP-TAE684 + indole-3-carbinol | 170 | 82.5 | 38.5 | 195 | 84.4 | 142 | 103 | 33.7 | 119 | 150 | 422 | 72.1 | 118 | 71.9 | 218 | 137 |